Laboratory results: article PMC12081870 (Communications Biology, 2025)
No constants are given. Whether binding was seen depends on the method and setting. Some results given as binding are weak or reduced against the parent protein; the word gives no strength.

T1: Sla1 SH3#3 (aa 354-413) (S. cerevisiae) (UniProt P32790)
T1 sequence (chain, 15N-labelled (NMR only)): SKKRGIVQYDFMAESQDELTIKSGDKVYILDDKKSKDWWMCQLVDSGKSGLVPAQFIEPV

B1: Las17 peptide p1 (PP1 motif) (peptide)
peptide: RNNRPVPPPPPMRTTTEGSGVR
notes: Las17, S. cerevisiae, first PP motif; also called peptide 1; source: synthetic peptide (GenScript Biotech, UK)
B2: Las17 peptide p3 (PP3 motif) (peptide)
peptide: LPAQTGRRGPAPPPPPRASRPTP
notes: Las17, S. cerevisiae, third PP motif; also called peptide 3; source: synthetic peptide (GenScript Biotech, UK)

Biological target: T1, Sla1 SH3#3 (aa 354-413) (S. cerevisiae)
Experiment: NMR titration; 15N-labelled Sla1 SH3 domains, 1H-15N HSQC; concentrated peptide stocks in the same buffer and pH added stepwise (0 to 8 equivalents shown); shift changes fitted to the standard quadratic equation; both purified

Binder	binding
B1	binds weakly
B2	binds weakly
